Laboratory results: publication PMC12668046, “Single cis‐elements in brassinosteroid‐induced upregulated genes are insufficient to recruit both redox states of the BIL1/BZR1 DNA‐binding domain” (Febs Letters, 2025)
No constants are given. Whether binding was seen depends on the method and setting. Where a sequence is shown, tags or fusion partners need not be part of it.

Target: T1, MBP-fused PIF4 DBD (253–319) connected via a flexible linker (A. thaliana) (UniProt Q8W2F3)
T1 sequence: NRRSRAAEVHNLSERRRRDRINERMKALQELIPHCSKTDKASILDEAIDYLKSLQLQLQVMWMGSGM
Test: native gel or EMSA; gel shift of unfused BIL1/BZR1 DBD fractions mixed with MBP-fused PIF4 DBD and 0.25 μM FAM-labeled DNA fragments from the IAA19 and SAUR-AC1 promoters; 10 mM Tris/HCl pH 7.5, 50 mM KCl, 50 mM NaCl, 0 or 5 mM DTT, 2.5% glycerol; heterodimers looked for on DNA; both purified

B1: unfused BIL1/BZR1 DBD (21–104), pretreated with the reductant DTT (domain or fragment, A. thaliana, UniProt Q8S307 21-104, looked up)
chain: ARRKPSWRERENNRRRERRRRAVAAKIYTGLRAQGDYNLPKHCDNNEVLKALCVEAGWVVEEDGTTYRKGCKPLPGEIAGTSSR
notes: also called reduced BIL1/BZR1 DBD; source: expressed and purified as described previously [9, 14, 21]; SEC into reductant-free buffer
binding: no binding (tested: 4 μM of each protein)
